From PubChem BioAssay AID1688 (National Center for Advancing Translational Sciences (NCATS), 2009)
Screen size: about 220,000 compounds; about 2,400 (1.1%) were called active. The shares of active, inactive and inconclusive entries below differ from those in the screen. Calls come from the whole dose curve; as a rule, active = well fitted inhibition curve with a large enough effect; inconclusive = small, poorly fitted or top-dose-only effect, or effect the other way; inactive = no such curve, though single readings can be large or run the other way. A potency beside an inconclusive call is a rough fit, not a confirmed value.

Assay: qHTS Multiplex Assay to Identify Dual Action Probes in a Cell Model of Huntington: Aggregate Formation (GFP); note: nearly all actives have a fitted effect of over 60% in size
Details: PC12 HttQ103-GFP aggregates, Acumen cytometry, 40 h; activity change, negative = inhibition: at 46.1 µM (top of the series) unless noted
Outline: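 Steps: seed 1500 PC12 HTTQ103-GFP cells/well; add tebufenozide, 100 nM final; add compound titration; add ATPLite reagent; quantify GFP aggregates by laser scanning cytometry.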
% is set by controls: 0 for no effect and ±100 for the full control effect; potency is the fitted concentration of half-maximal effect.

Structure (SMILES)	activity change, negative = inhibition	Potency
Cn1c(=O)c2c(ncn2CC(O)CNc2ccc(F)cc2)n(C)c1=O (stereo not given)	inactive: 5.07% [at 9.22 µM]	–
CC1(C)SC(=S)N(/N=C/c2ccccc2)C1N(O)C(=O)Nc1ccc([N+](=O)[O-])cc1 (stereo not given)	–	inactive
CC1Cc2nc(SCC(=O)NCc3ccccc3)n(Cc3ccccc3)c(=O)c2S1 (stereo not given)	–	inconclusive: 3.16 µM [activator, single point]
COc1ccc2[nH]c(=O)c(CN(C3CCCCC3)C(c3nnnn3Cc3ccco3)C(C)C)cc2c1 (stereo not given)	–	inconclusive: 20 µM [inhibitor, single point]
CCn1c(SCC(=O)c2ccc(NS(=O)(=O)c3ccccc3)cc2)nnc1-c1cccs1	–	inactive
CC(=O)N1CCC2(CC1)C(C#N)=C(N)Oc1n[nH]c(CSc3ccc(C)cc3)c12	inactive: 7.85% [at 9.22 µM]	–
COc1ccc(C(=O)Nc2nnc(-c3ccccc3)o2)cc1OC	–	inconclusive: 17.8 µM [inhibitor, partial curve]
c1ccc2c(c1)C(=Nn1cnnc1)c1ccccc1-2	–	inactive
Cc1ccc(CS/C(Nc2ccccc2C)=C(\C#N)C(=O)NCc2ccco2)c(C)c1	–	inconclusive: 25.1 µM [inhibitor, partial curve]
Cc1ccc(C(=O)N/N=C2\CCSC2)cc1[N+](=O)[O-]	–	inconclusive: 7.08 µM [inhibitor, partial curve]
CCn1c(SCC(=O)Nc2nc(-c3ccccc3)cs2)nnc1-c1ccccc1O	–	inconclusive: 22.4 µM [inhibitor, single point]
O=C(Nc1cccc(Br)c1)c1ccc(OC2CSC2)cc1	–	inconclusive: 25.1 µM [inhibitor, single point]
Cc1ccc(-c2cc3cccc[n+]3cc2-c2ccc(C)cc2)cc1	–	inconclusive: 22.4 µM [inhibitor, single point]
CCCCNC(=S)NNC(=O)c1ccc2c(c1)OCO2	–	inconclusive: 7.08 µM [activator, partial curve]
CCOC(=O)c1sc2nc(NC(=O)C(C)(C)C)sc2c1C	–	active: 35.5 µM
CCN(CC)S(=O)(=O)c1cccc(-c2nnc(SCCCC(=O)c3ccccc3)o2)c1	–	inconclusive: 35.5 µM [inhibitor, single point]
O=C(Nc1ccc2c(c1)OCO2)[C@@H]1[C@@H]2C(=O)N(C3CCCCC3)C(=O)[C@@H]2C2c3ccccc3C=CN21 (stereo not given in full)	–	inconclusive: 0.631 µM [inhibitor, single point]
O=C(CNc1ccccc1Cl)N/N=C1\CCCc2ccccc21	inactive: -13.9% [at 9.22 µM]	–
CNc1nc(-c2ccccc2)[n+](-c2ccc(C)cc2)s1	–	inactive
c1csc(-c2nc3nc4ccccc4nc3n2Cc2ccc3c(c2)OCO3)c1	–	inactive
Cc1ccc(C)n1-c1ccc(N2CCOCC2)nc1	–	inconclusive: 11.2 µM [activator, single point]
O=[N+]([O-])c1ccc(Nc2nc(N/N=C/c3cccc(F)c3)nc(N3CCCC3)n2)cc1	–	inconclusive: 22.4 µM [inhibitor, single point]
COc1ccc(O)c(/C=N\NC(=O)CCn2nnc3ccccc32)c1	–	inconclusive: 3.16 µM [inhibitor, partial curve]
CCCn1c(CN(Cc2ccccc2)Cc2ccccc2)nc2c1c(=O)n(C)c(=O)n2C	–	inconclusive: 25.1 µM [inhibitor, single point]

Structure (SMILES)	activity change, negative = inhibition	Potency
COC(=O)CSc1[nH]c2ccccc2c1[N+](=O)[O-]	inactive: -35.7% [at 9.22 µM]	–
CCCCOc1cccc(C(=O)NC(=S)Nc2cccc(NC(=O)c3ccccc3Cl)c2)c1	–	inactive
CCOC(=O)c1cc2c(C)n(-c3ccc(C)cc3)c(C)c2ccc1=O	–	inconclusive: 25.1 µM [inhibitor, single point]
O=C(Nc1nc(-c2ccccn2)cs1)c1ncc(Cl)c(Cl)c1Cl	–	inconclusive: 11.2 µM [inhibitor, partial curve]
Cc1sc(-n2c(C)cc(/C=N/n3cnnc3)c2C)c(C#N)c1C	–	inconclusive: 31.6 µM [inhibitor, partial curve]
CC[n+]1c(/C=C/N(C)c2ccccc2)oc2ccc(F)cc21	–	inconclusive: 35.5 µM [activator, single point]
CCCCNC(=O)c1c(O)c2cccc3c2n(c1=O)CCC3	–	inconclusive: 35.5 µM [inhibitor, single point]
Cc1nc2ccc(NS(=O)(=O)c3c(C)c(C)cc(C)c3C)cc2s1	–	active: 12.6 µM
CC(C)C(c1nnnn1Cc1ccccc1)N(Cc1ccco1)Cc1cccs1 (stereo not given)	–	inconclusive: 35.5 µM [inhibitor, single point]
CC(C)C(=O)NC(=S)Nc1c(Cl)ccc2nsnc12	inactive: -14% [at 9.22 µM]	–
COc1ccc(/C=C2\SC(c3ccc(C)cc3)=NC2=O)cc1OC	–	inconclusive: 12.6 µM [activator, single point]
CCCCN(CC)CCNC(=O)c1cc2c(=O)n(C)c3ccccc3c2n1C	–	inconclusive: 35.5 µM [inhibitor, single point]
CCc1ccc(NC2=NC(C(=O)c3ccccc3)CC(=O)N2)cc1 (stereo not given)	–	inactive
O=C(CSc1nnc(CN2CCOCC2)n1-c1ccc(Cl)cc1)Nc1cc(Cl)ccc1O	–	inconclusive: 4.47 µM [activator, full curve, poor fit]
Oc1oc(-c2ccccc2Br)nc1C=Nc1ccc(Br)cn1	–	inconclusive: 35.5 µM [inhibitor, partial curve]
Cc1cccc(Nc2nc3c(s2)CCCC3)c1	–	inactive
COc1ccc(-c2nnc(SCC3CCCO3)n2C)cc1 (stereo not given)	–	inactive
COc1ccc(-n2c(C)nc3c(cnn3-c3ccccc3)c2=O)cc1	–	inconclusive: 15.8 µM [inhibitor, single point]
N#CC(C#N)=C1C=C2C=C(N3CCCCCC3)CCC2CC1 (stereo not given)	–	active: 0.708 µM
O=C(O)C/C=C(/NC(=O)OCc1ccccc1)C(=O)OCc1ccccc1	–	inconclusive: 2.24 µM [activator, partial curve]
CSc1nc(N)n(-c2cc(C(F)(F)F)ccn2)n1	inactive: 17.7% [at 9.22 µM]	–
COc1cccc(C2c3c(-c4cc(Cl)c(C)cc4O)n[nH]c3C(=O)N2Cc2cccnc2)c1 (stereo not given)	–	inconclusive: 3.55 µM [activator, single point]
CCOC(=O)c1oc2ccc(S(=O)(=O)n3nc(-c4ccc(OC)cc4)cc3N)cc2c1C	–	inactive
CC(=O)c1cc(-c2ccccc2)n(CCC(=O)NC2CCC(C)CC2)c1C (stereo not given)	–	inactive

Structure (SMILES)	activity change, negative = inhibition	Potency
O=C(NCc1ccco1)C(c1ccccc1)N(C(=O)Cc1cccs1)c1ccccc1F (stereo not given)	–	inconclusive: 12.6 µM [inhibitor, single point]
Cc1cc2c(cc1S(=O)(=O)N(C)c1ccccc1)NC(=O)CO2	–	inconclusive: 0.501 µM [activator, single point]
CCNc1ccc(S(=O)(=O)N(C)C)cc1NCC(=O)Nc1ccc(F)c(Cl)c1	–	inactive
O=C(N/N=C/c1sc(N2CCOCC2)nc1-c1ccccc1)c1ccccc1O	–	inconclusive: 17.8 µM [inhibitor, single point]
CCOC(=O)C1Sc2[nH]c(=O)sc2C(c2ccc(Cl)cc2)C1C(=O)OCC (stereo not given)	–	inconclusive: 11.2 µM [activator, single point]
Fc1cc(F)c2nc(Nc3nc4cc5c(cc4s3)OCO5)sc2c1	–	inconclusive: 4.47 µM [activator, single point]
O=C(C[n+]1ccc(CCSc2ccc(F)cc2)cc1)c1ccccc1	–	inconclusive: 5.62 µM [activator, single point]
Fc1ccc2c(c1)C(c1ccncc1)=NNC(c1cccnc1)=N2	–	inconclusive: 35.5 µM [inhibitor, single point]
O=C(N/N=C\c1ccccn1)c1ccccc1O	–	inconclusive: 10 µM [inhibitor, partial curve]
CC(C)NC(=O)COc1ncnc2sccc12	–	inconclusive: 35.5 µM [inhibitor, single point]
O=C(Oc1c(Cl)cc(Cl)c2cccnc12)c1cccc([N+](=O)[O-])c1	–	active: 2.82 µM
Cc1c(C)n(Cc2ccccc2)c2ncnc(N)c12	–	inconclusive: 28.2 µM [inhibitor, single point]
CCc1ccc2oc(-c3ccc(OC)cc3)cc(=Nc3cccc(C(=O)O)c3)c2c1	–	inconclusive: 35.5 µM [inhibitor, partial curve, poor fit]
CCOC(=O)C1=C(c2ccccc2)NC(SCC(=O)NC2CCCCC2)=C(C#N)C1c1ccco1 (stereo not given)	–	inconclusive: 35.5 µM [inhibitor, single point]
COC(=O)CCC(=O)Nc1sc2c(c1C#N)CCCC2	–	inactive
CCOc1ccc(OCC)c(NC(=O)c2ccc(CNc3c(N4CCOCC4)c(=O)c3=O)cc2)c1	–	inconclusive: 3.98 µM [activator, single point]
Cc1[nH]nc2c1C(c1ccccc1F)NC2=O (stereo not given)	–	inactive
Cc1ccc(/C=C/C(=O)c2ccccc(=O)c2O)c(C)c1	–	inconclusive: 7.08 µM [inhibitor, partial curve]
Brc1ccccc1OCCCCn1cnc2ccccc21	–	inconclusive: 11.2 µM [inhibitor, single point]
Cn1c(SCc2ccc(Br)cc2)nc2c(c1=O)SCC2	–	inconclusive: 17.8 µM [inhibitor, single point]
Cc1ccc(NC(=O)c2ccc(Br)o2)cc1S(=O)(=O)N(C)C	–	inactive
CC1(C)CC(=O)C(C=NC2CCCCC2)=C(O)C1	–	inactive
